Reference: doi:10.1101/2021.04.15.440011
These are yes or no findings as the source states them, for the method shown. In cells and extracts the contact can be indirect. Some entries that bind do so weakly or less than the wild type.

Chains of the proteins cited; added tags and fusions are not shown.
UniProt Q9GZV5: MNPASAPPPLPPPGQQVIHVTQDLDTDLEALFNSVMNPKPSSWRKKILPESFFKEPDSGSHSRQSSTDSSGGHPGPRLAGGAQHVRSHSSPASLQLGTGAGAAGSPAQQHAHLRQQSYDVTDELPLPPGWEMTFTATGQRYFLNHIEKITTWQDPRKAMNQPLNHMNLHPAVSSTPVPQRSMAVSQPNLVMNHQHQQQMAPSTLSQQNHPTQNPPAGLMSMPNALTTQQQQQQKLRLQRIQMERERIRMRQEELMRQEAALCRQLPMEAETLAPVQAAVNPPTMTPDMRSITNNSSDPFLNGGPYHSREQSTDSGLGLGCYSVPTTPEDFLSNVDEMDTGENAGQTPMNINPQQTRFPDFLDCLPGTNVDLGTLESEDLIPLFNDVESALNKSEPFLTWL
UniProt P28347: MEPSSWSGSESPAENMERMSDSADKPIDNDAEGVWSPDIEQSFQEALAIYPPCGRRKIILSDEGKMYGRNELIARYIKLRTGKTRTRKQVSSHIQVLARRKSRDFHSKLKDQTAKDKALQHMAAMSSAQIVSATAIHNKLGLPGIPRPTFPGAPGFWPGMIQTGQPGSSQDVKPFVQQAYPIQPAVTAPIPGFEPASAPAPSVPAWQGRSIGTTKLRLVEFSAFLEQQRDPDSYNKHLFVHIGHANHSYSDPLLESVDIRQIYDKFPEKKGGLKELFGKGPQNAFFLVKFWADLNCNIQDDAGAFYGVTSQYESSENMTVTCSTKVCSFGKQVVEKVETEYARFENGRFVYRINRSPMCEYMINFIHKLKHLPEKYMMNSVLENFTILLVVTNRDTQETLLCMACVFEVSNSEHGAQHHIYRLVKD
UniProt Q15561: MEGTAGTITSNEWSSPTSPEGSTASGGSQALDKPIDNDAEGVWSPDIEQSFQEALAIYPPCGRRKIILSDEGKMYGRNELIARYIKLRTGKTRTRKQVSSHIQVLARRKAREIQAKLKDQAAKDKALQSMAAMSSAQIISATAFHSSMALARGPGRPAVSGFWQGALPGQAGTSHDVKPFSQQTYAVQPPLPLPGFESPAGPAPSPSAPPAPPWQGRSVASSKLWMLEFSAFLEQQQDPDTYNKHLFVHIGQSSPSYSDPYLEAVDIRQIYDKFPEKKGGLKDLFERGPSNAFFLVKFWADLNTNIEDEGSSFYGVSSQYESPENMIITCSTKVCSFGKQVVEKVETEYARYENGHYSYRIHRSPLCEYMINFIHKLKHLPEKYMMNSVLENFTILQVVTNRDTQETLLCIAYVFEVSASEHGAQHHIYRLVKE
UniProt P84022: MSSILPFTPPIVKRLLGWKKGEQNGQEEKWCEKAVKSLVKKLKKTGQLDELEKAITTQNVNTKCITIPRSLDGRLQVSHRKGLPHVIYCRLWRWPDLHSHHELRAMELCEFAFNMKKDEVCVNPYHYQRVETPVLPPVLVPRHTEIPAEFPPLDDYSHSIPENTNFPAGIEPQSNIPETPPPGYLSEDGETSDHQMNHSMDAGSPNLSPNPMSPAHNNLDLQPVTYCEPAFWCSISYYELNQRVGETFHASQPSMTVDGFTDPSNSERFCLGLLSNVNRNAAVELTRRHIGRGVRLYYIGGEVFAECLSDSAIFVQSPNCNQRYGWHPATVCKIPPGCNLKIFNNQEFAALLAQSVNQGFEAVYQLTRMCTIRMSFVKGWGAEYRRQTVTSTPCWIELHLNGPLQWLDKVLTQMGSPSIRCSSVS

Assays:
Experiment in all cases: co-IP
[1] = molecular target: TAZ (transcriptional co-activator, paralog of YAP1) (human (endogenous in HK2)) (UniProt Q9GZV5)
myc-TEAD1 = myc-TEAD1 (UniProt P28347)
myc-TEAD4 = myc-TEAD4 (UniProt Q15561)

Row | binding [1] | binding (myc-TEAD1) | binding (myc-TEAD4) | Substance
1 | binds |  |  | phosphorylated mothers against decapentaplegic homolog 3 (p-SMAD3) (from UniProt P84022 1-425)
2 |  | binds | binds | HA-TAZ (from UniProt Q9GZV5 1-400)
